Values quoted from earlier work as cited in US6982284B1, “Compositions and methods for modification of skin lipid content” (Applied Genetics Incorporated Dermatics, priority 1999, dated 2006).
For at least one compound, name, drawing or mass did not settle the structure.

Test system: living skin equivalents

Structure (SMILES): CC1=C(/C=C/C(C)=C/C=C/C(C)=C/C(=O)O)C(C)(C)CCC1 [Retinoic acid]
- decrease in sphingolipids (most notably, ceramides): 3 fold
- decrease of FFA: 3 fold
- decrease of acylceramides: 9 fold
- decrease of cholesterol and cholesterol sulfate: ~2 fold
- decrease of lanosterol: 6 fold
- increase in phospholipids: 3–4 fold
